Experimental data: PubChem BioAssay AID1259283 (Sanger Institute, 2017)

- Screen: 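Kinases needed for HT115 growth and partners for drug synergy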 (primary screen)
- Cell system: HT115 colorectal cancer cells
- Reagent: siRNA pool against human genes
- Challenge: anchor drug given one day after siRNA: BYL719 at 1 µM, cetuximab at 5 µg/ml, trametinib at 10 nM, or DMSO vehicle alone
- Measured: 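Per-drug synergy scores plus replicate-mean viability relative to non-targeting pool #2 wells, also expressed as a robust z-score based on control wells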
- Reading the numbers: robust z-score, knock-down alone: higher = more viable cells after knock-down
- Hit rule: 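a gene counts as essential when its robust z-score with knock-down alone is below -3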
- Calls: active = essential (z below -3, no drug); inactive = no change without drug
The whole screen tested 794 reagents; shown is a part drawn at random. Over the whole deposit, 14 (1.8%) were called active. 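Calls reflect only viability loss without drug; drug synergy does not enter the call.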 Further read-outs or replicates are left out here. Reagent sequences are not shown. The record does not give: the amount of reagent, the time to read-out.

SRMS — robust z-score, knock-down alone: 0.136; Outcome: inactive
TTBK1 — robust z-score, knock-down alone: 0.618; Outcome: inactive
TAF1 — robust z-score, knock-down alone: -1.43; Outcome: inactive
TRIB3 — robust z-score, knock-down alone: 0.375; Outcome: inactive
CMPK1 — robust z-score, knock-down alone: 0.789; Outcome: inactive
CALM1 — robust z-score, knock-down alone: 0.631; Outcome: inactive
NME5 — robust z-score, knock-down alone: 0.708; Outcome: inactive
FBXW7 — robust z-score, knock-down alone: 0.789; Outcome: inactive
CKS2 — robust z-score, knock-down alone: 0.278; Outcome: inactive
CSF1R — robust z-score, knock-down alone: 0.44; Outcome: inactive
MAGI2 — robust z-score, knock-down alone: 0.498; Outcome: inactive
MARK3 — robust z-score, knock-down alone: 0.789; Outcome: inactive
CDK7 — robust z-score, knock-down alone: 0.789; Outcome: inactive

Already shown: 4 of the entries above.
TRIB3 — robust z-score, knock-down alone: 0.375; Outcome: inactive
CMPK1 — robust z-score, knock-down alone: 0.789; Outcome: inactive
CALM1 — robust z-score, knock-down alone: 0.631; Outcome: inactive
NME5 — robust z-score, knock-down alone: 0.708; Outcome: inactive

The results go on:
CAMK2N1 — robust z-score, knock-down alone: -0.914; Outcome: inactive
MPP1 — robust z-score, knock-down alone: 0.789; Outcome: inactive
BRDT — robust z-score, knock-down alone: -0.681; Outcome: inactive
MED24 — robust z-score, knock-down alone: 0.789; Outcome: inactive
PAK6 — robust z-score, knock-down alone: 0.158; Outcome: inactive
ACVR2B — robust z-score, knock-down alone: -0.167; Outcome: inactive
BPTF — robust z-score, knock-down alone: -0.878; Outcome: inactive
EXOSC10 — robust z-score, knock-down alone: -1.02; Outcome: inactive
OBSCN — robust z-score, knock-down alone: 0.0562; Outcome: inactive
SOS2 — robust z-score, knock-down alone: 0.605; Outcome: inactive
FRK — robust z-score, knock-down alone: 0.789; Outcome: inactive
PRKG2 — robust z-score, knock-down alone: 0.447; Outcome: inactive
PIP4K2B — robust z-score, knock-down alone: -1.59; Outcome: inactive
MAP3K5 — robust z-score, knock-down alone: 0.789; Outcome: inactive
RPS6KA4 — robust z-score, knock-down alone: -1.32; Outcome: inactive
